Measured values published in US7468370B2, “[1,7]naphthyridines as PDE4 inhibitors” (Novartis AG, priority 2002, dated 2008).
The structures given here were assigned with low confidence; some may be wrong.

Amino acid sequences for entries named in this document (tags omitted). Residues count along the entry.
UniProt Q08499, 1-673 isoform 2: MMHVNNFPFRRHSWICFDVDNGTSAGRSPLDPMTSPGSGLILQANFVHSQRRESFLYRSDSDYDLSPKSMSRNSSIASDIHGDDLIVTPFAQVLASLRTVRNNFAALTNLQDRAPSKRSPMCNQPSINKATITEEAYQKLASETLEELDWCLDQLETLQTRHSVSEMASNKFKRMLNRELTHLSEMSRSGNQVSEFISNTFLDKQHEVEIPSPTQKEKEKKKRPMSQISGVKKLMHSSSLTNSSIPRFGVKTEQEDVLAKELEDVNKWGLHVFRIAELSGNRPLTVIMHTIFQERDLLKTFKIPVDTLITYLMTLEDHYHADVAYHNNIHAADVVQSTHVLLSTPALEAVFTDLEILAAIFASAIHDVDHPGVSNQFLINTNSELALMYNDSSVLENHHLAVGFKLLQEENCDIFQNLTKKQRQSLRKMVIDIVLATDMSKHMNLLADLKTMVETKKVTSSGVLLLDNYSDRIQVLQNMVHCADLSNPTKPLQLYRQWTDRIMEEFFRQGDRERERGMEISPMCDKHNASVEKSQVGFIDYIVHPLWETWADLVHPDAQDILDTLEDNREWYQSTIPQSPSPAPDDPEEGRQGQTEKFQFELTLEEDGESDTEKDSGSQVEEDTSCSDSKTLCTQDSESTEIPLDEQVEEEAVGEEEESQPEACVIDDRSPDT

Target: human PDE4D (Homo sapiens, UniProt Q08499)
Assay: PDE4 Isoenzyme Inhibition Assay (Scintillation Proximity Assay, [3H]-cAMP)
Type: biochemical
Details: read-out: IC50 for inhibition of PDE4D; recombinant 6His-tagged human PDE4D3 expressed in Sf21 cells; 1 μM cAMP; 1% DMSO; room temperature

SMILES: O=C(O)C1CCN(c2cc3cccnc3c(-c3ccc4c(c3)OCO4)n2)CC1
- IC50: 0.014 µM
